# Measured values reported in PMC10838262.
# These are yes or no findings as the source states them, for the method shown. In cells and extracts the contact can be indirect. Some results given as binding are weak or reduced against the parent protein; the word gives no strength.
# T1: NAT10 (human (endogenous in A549)) (UniProt Q9H0A0)
# T1 sequence: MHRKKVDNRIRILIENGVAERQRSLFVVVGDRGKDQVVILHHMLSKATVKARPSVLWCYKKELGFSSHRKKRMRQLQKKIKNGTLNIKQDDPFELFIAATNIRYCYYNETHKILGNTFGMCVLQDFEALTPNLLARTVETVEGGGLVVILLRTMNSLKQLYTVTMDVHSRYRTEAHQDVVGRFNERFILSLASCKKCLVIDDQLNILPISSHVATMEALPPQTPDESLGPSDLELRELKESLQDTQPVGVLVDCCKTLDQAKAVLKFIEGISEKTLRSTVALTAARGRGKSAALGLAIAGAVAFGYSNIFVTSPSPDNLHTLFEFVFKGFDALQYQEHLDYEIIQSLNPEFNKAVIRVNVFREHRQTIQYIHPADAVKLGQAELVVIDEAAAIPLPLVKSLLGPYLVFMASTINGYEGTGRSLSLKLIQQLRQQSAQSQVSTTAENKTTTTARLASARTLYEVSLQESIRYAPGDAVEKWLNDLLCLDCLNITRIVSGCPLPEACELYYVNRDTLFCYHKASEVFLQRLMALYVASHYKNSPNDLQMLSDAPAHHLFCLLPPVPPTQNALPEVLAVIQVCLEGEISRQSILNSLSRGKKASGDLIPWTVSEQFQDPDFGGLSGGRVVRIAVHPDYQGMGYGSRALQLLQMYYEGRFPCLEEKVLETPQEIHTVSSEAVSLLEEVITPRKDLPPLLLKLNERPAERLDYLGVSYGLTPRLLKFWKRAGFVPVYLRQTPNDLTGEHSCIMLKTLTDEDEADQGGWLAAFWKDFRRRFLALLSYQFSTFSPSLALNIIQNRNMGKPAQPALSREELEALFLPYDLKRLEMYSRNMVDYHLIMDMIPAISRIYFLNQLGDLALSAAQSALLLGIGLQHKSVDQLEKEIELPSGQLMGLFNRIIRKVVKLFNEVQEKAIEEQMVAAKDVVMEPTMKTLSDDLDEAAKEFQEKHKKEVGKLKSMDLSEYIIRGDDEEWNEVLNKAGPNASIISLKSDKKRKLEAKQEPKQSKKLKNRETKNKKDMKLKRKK
# Molecular target: T1, NAT10 (human (endogenous in A549))
# Test: co-IP; A549 cells lysed with RIPA-lysis buffer, treated with or without RNase A, immunoprecipitated with anti-NAT10 antibody, Western blotting
binder,measurement,value
"DGCR8 (protein, UniProt Q8WYQ5 1-773) METDESPSPLPCGPAGEAVMESRARPFQALPREQSPPPPLQTSSGAEVMDVGSGGDGQSELPAEDPFNFYGASLLSKGSFSKGRLLIDPNCSGHSPRTARHAPAVRKFSPDLKLLKDVKISVSFTESCRSKDRKVLYTGAERDVRAECGLLLSPVSGDVHACPFGGSVGDGVGIGGESADKKDEENELDQEKRVEYAVLDELEDFTDNLELDEEGAGGFTAKAIVQRDRVDEEALNFPYEDDFDNDVDALLEEGLCAPKKRRTEEKYGGDSDHPSDGETSVQPMMTKIKTVLKSRGRPPTEPLPDGWIMTFHNSGVPVYLHRESRVVTWSRPYFLGTGSIRKHDPPLSSIPCLHYKKMKDNEEREQSSDLTPSGDVSPVKPLSRSAELEFPLDEPDSMGADPGPPDEKDPLGAEAAPGALGQVKAKVEVCKDESVDLEEFRSYLEKRFDFEQVTVKKFRTWAERRQFNREMKRKQAESERPILPANQKLITLSVQDAPTKKEFVINPNGKSEVCILHEYMQRVLKVRPVYNFFECENPSEPFGASVTIDGVTYGSGTASSKKLAKNKAARATLEILIPDFVKQTSEEKPKDSEELEYFNHISIEDSRVYELTSKAGLLSPYQILHECLKRNHGMGDTSIKFEVVPGKNQKSEYVMACGKHTVRGWCKNKRVGKQLASQKILQLLHPHVKNWGSLLRMYGRESSKMVKQETSDKSVIELQQYAKKNKPNLHILSKLQEEMKRLAEEREETRKKPKMSIVASAQPGGEPLCTVDV",binding,binds
